These are yes or no findings as the source states them, for the method shown. For part of these data: Binding calls can cover weak binding; strength is not graded here.
Tests used:
[1] = target: CENP-F 2977-3020 F2989A, two-hybrid bait (human); assay: two-hybrid; LexA operator-driven; bait pEG202-CENP-F 2977-3020 (wild type or alanine mutants), prey pJG4-5-Miro1 1-594, strain EGY48; X-gal overlay on Gal/SD-His-Ura-Trp and growth on Gal/SD-Leu, 48 h at 30°C
[2] = target: CENP-F 2977-3020 T2997A, two-hybrid bait (human); assay: as above
[3] = target: CENP-F 2977-3020 G2988A, two-hybrid bait (human); assay: as above
[4] = target: CENP-F 2819-3114 fragment, two-hybrid bait (pEG202) (human); assay: two-hybrid; LexA operator-driven; bait pEG202-CENP-F 2819-3114, prey pJG4-5 with full length RB, RB 301-918 or Miro1, strain EGY48; growth on leucine dropout medium

B1: Miro1 1-594, two-hybrid prey pJG4-5-Miro1^1-594 (domain or fragment, UniProt Q8IXI2 1-594)
chain: MKKDVRILLVGEPRVGKTSLIMSLVSEEFPEEVPPRAEEITIPADVTPERVPTHIVDYSEAEQSDEQLHQEISQANVICIVYAVNNKHSIDKVTSRWIPLINERTDKDSRLPLILVGNKSDLVEYSSMETILPIMNQYTEIETCVECSAKNLKNISELFYYAQKAVLHPTGPLYCPEEKEMKPACIKALTRIFKISDQDNDGTLNDAELNFFQRICFNTPLAPQALEDVKNVVRKHISDGVADSGLTLKGFLFLHTLFIQRGRHETTWTVLRRFGYDDDLDLTPEYLFPLLKIPPDCTTELNHHAYLFLQSTFDKHDLDRDCALSPDELKDLFKVFPYIPWGPDVNNTVCTNERGWITYQGFLSQWTLTTYLDVQRCLEYLGYLGYSILTEQESQASAVTVTRDKKIDLQKKQTQRNVFRCNVIGVKNCGKSGVLQALLGRNLMRQKKIREDHKSYYAINTVYVYGQEKYLLLHDISESEFLTEAEIICDVVCLVYDVSNPKSFEYCARIFKQHFMDSRIPCLIVAAKSDLHEVKQEYSISPTDFCRKHKMPPPQAFTCNTADAPSKDIFVKLTTMAMYPHVTQADLKSSTFWL
B1 was tested, and the binding [1] was “no binding”, the binding [2] was “binds” and the binding [3] was “no binding”. The binding [4] was “binds”.

B2: retinoblastoma (RB) protein, full length, two-hybrid prey (pJG4-5) (protein, UniProt P06400 1-928)
chain: MPPKTPRKTAATAAAAAAEPPAPPPPPPPEEDPEQDSGPEDLPLVRLEFEETEEPDFTALCQKLKIPDHVRERAWLTWEKVSSVDGVLGGYIQKKKELWGICIFIAAVDLDEMSFTFTELQKNIEISVHKFFNLLKEIDTSTKVDNAMSRLLKKYDVLFALFSKLERTCELIYLTQPSSSISTEINSALVLKVSWITFLLAKGEVLQMEDDLVISFQLMLCVLDYFIKLSPPMLLKEPYKTAVIPINGSPRTPRRGQNRSARIAKQLENDTRIIEVLCKEHECNIDEVKNVYFKNFIPFMNSLGLVTSNGLPEVENLSKRYEEIYLKNKDLDARLFLDHDKTLQTDSIDSFETQRTPRKSNLDEEVNVIPPHTPVRTVMNTIQQLMMILNSASDQPSENLISYFNNCTVNPKESILKRVKDIGYIFKEKFAKAVGQGCVEIGSQRYKLGVRLYYRVMESMLKSEEERLSIQNFSKLLNDNIFHMSLLACALEVVMATYSRSTSQNLDSGTDLSFPWILNVLNLKAFDFYKVIESFIKAEGNLTREMIKHLERCEHRIMESLAWLSDSPLFDLIKQSKDREGPTDHLESACPLNLPLQNNHTAADMYLSPVRSPKKKGSTTRVNSTANAETQATSAFQTQKPLKSTSLSLFYKKVYRLAYLRLNTLCERLLSEHPELEHIIWTLFQHTLQNEYELMRDRHLDQIMMCSMYGICKVKNIDLKFKIIVTAYKDLPHAVQETFKRVLIKEEEYDSIIVFYNSVFMQRLKTNILQYASTRPPTLSPIPHIPRSPYKFPSSPLRIPGGNIYISPLKSPYKISEGLPTPTKMTPRSRILVSIGESFGTSEKFQKINQMVCNSDRVLKRSAEGSNPPKPLKKLRFDIEGSDEADGSKHLPGESKFQQKLAEMTSTRTRMQKQKMNDSMDTSNKEEK
For B2, the binding [4] was “no binding”.

B3: RB 301-918 fragment, two-hybrid prey (pJG4-5) (domain or fragment, UniProt P06400 301-918)
chain: NSLGLVTSNGLPEVENLSKRYEEIYLKNKDLDARLFLDHDKTLQTDSIDSFETQRTPRKSNLDEEVNVIPPHTPVRTVMNTIQQLMMILNSASDQPSENLISYFNNCTVNPKESILKRVKDIGYIFKEKFAKAVGQGCVEIGSQRYKLGVRLYYRVMESMLKSEEERLSIQNFSKLLNDNIFHMSLLACALEVVMATYSRSTSQNLDSGTDLSFPWILNVLNLKAFDFYKVIESFIKAEGNLTREMIKHLERCEHRIMESLAWLSDSPLFDLIKQSKDREGPTDHLESACPLNLPLQNNHTAADMYLSPVRSPKKKGSTTRVNSTANAETQATSAFQTQKPLKSTSLSLFYKKVYRLAYLRLNTLCERLLSEHPELEHIIWTLFQHTLQNEYELMRDRHLDQIMMCSMYGICKVKNIDLKFKIIVTAYKDLPHAVQETFKRVLIKEEEYDSIIVFYNSVFMQRLKTNILQYASTRPPTLSPIPHIPRSPYKFPSSPLRIPGGNIYISPLKSPYKISEGLPTPTKMTPRSRILVSIGESFGTSEKFQKINQMVCNSDRVLKRSAEGSNPPKPLKKLRFDIEGSDEADGSKHLPGESKFQQKLAEMTSTRTRMQKQKMND
With B3 the binding [4] was “no binding”.
